Measurements taken from publication doi:10.1101/2024.11.15.622802.
No constants are given. Whether binding was seen depends on the method and setting. Binding seen in cells or lysates may run through a third protein. Here binding means that the protein was enriched with, or labelled near, the bait; the list need not be complete. Tags and fused reporters may be left off the sequences shown.

T1: eGFP-AMSH2 (Arabidopsis AMSH2) (Arabidopsis thaliana) (UniProt Q6NKP9)
T1 sequence: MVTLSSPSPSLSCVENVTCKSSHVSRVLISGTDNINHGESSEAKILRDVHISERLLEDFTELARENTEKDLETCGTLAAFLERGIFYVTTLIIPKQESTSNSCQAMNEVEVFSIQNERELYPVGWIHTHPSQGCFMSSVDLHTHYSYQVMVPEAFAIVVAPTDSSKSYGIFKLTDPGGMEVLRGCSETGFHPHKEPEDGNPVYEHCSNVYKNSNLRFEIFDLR

B1: eGFP-AMSH2 (Arabidopsis AMSH2) (enzyme, UniProt Q6NKP9 1-223)
chain: T1 sequence

Key:
[1] = target: T1, eGFP-AMSH2 (Arabidopsis AMSH2) (Arabidopsis thaliana); assay: affinity purification with mass spectrometry
[2] = target: Flag-Mp10 (Myzus persicae); assay: affinity purification with mass spectrometry

Molecule | binding [1] | binding [2]
Flag-Mp10 (Myzus persicae) | binds | –
B1 | – | binds
